Measurements published in patent US7342033B2, “Use of riluzole for the treatment of multiple sclerosis” (Vereniging Voor Christelijk Wetenschappelijk Onderwijs, priority 1999, dated 2008).

Test system: multiple sclerosis patients
[1] = brain MRI, second year, riluzole 2×50 mg daily
[2] = untreated year versus riluzole year

`Nc1nc2ccc(OC(F)(F)F)cc2s1` [riluzole, (6-trifluoromethoxy)-2-benzothiazolamine)] was tested, and the “Increase in T1 lesion load, Δ 1-2 yr, mean” value [1] was “mean 24%”, the “Increase in T1 lesion load, Δ 1-2 yr, median” value [1] was “median 6%” and the “Increase in T2 lesion load, Δ 1-2 yr, mean” value [1] was “mean 12%”. For the same molecule, the “Increase in T2 lesion load, Δ 1-2 yr, median” value [1] was “median: 10%”, the “Effect on EDSS score” value (riluzole 2×50 mg daily, one year) was “No effect” and the “Increase in T2 lesion load in the brain under treatment (in words)” value (riluzole year compared with untreated year) was “did not alter much”. For the same molecule, the “Accumulation of hypointense (T1) lesion under treatment (in words)” value (riluzole year compared with untreated year, p=0.66) was “trend towards reduction”, the “Change in spinal cord area, Δ 1-2 yr (percent)” value (second year, riluzole 2×50 mg daily) was −0.15% and the “Change in spinal cord area, Δ 1-2 yr” value (second year, riluzole 2×50 mg daily, mean, baseline 66.7 mm^2) was −0.2 mm^2. The “Spinal cord area, difference Δ 0-1 yr versus Δ 1-2 yr” value [2] was −1.5 mm^2, the “Spinal cord area, difference Δ 0-1 yr versus Δ 1-2 yr (percent)” value [2] was −2.15% and the “T1 lesion load, difference Δ 0-1 yr versus Δ 1-2 yr, mean” value [2] was “mean 53%”. For the same molecule, the “T1 lesion load, difference Δ 0-1 yr versus Δ 1-2 yr, median” value [2] was “median 24%”, the “T2 lesion load, difference Δ 0-1 yr versus Δ 1-2 yr, mean” value [2] was “mean 28%” and the “T2 lesion load, difference Δ 0-1 yr versus Δ 1-2 yr, median” value [2] was “median 21.6%”.
